Binding data for 1 substance are collected here from publication PMC6521544.

Protein sequences, listed by entry. Tags and fused reporters are not part of them.
UniProt P62136: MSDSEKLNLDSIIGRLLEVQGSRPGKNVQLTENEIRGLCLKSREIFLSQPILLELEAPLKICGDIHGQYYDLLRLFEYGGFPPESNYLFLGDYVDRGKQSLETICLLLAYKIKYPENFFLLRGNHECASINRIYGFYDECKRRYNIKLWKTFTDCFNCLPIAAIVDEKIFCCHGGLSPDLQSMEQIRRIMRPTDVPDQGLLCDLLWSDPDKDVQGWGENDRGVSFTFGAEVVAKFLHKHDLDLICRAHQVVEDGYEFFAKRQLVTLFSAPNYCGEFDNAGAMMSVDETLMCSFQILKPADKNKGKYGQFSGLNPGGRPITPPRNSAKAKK

No constants are given. Whether binding was seen depends on the method and setting. Binding seen in cells or lysates may run through a third protein. Some binding calls cover weakened binding; strength is not graded here. Tags and fused reporters may be left off the sequences shown.

Assay [1] addresses T1, Migration and invasion inhibitory protein (MIIP), HA-tagged (UniProt Q5JXC2).
T1 sequence: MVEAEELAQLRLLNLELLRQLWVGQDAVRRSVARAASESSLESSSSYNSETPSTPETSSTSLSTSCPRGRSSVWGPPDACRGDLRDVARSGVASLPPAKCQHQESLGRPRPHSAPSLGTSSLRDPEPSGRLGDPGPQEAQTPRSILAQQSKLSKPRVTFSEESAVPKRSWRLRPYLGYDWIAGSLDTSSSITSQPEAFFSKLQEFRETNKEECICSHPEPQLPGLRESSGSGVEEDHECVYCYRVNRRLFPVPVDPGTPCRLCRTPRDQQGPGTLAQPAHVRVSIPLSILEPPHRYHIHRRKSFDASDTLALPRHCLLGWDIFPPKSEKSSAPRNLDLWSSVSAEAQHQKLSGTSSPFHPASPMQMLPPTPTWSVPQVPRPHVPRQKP
The assay can be described thus: co-IP; LNCaP-HA-MIIP stable cells transfected with pmCherry-C1-PP1α; lysis in 30 mM Tris pH 7.5, 150 mM NaCl, 1% Triton X-100; immunoprecipitation with anti-HA, 4 °C; immunoblot with anti-PP1α.

Assay [2] addresses T1, Migration and invasion inhibitory protein (MIIP), HA-tagged. Nature of the assay: co-IP; HEK-293T cells co-transfected with pLEX-HA-MIIP and pmCherry-C1-PP1α; lysis in 30 mM Tris pH 7.5, 150 mM NaCl, 1% Triton X-100; immunoprecipitation with anti-HA (mouse IgG as control), 4 °C; immunoblot with anti-PP1α.
For assay [3], the target named is T2, MIIP∆C, FLAG-tagged (MIIP N-terminal 1-219 residues) (UniProt Q5JXC2).
T2 sequence: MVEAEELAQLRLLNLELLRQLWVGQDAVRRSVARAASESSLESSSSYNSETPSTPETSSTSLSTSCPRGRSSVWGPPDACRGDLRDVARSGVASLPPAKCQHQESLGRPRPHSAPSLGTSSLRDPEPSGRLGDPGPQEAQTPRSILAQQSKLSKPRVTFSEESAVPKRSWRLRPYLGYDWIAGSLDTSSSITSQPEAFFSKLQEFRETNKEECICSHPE
The assay can be described thus: co-IP; HEK-293T cells co-transfected with pmCherry-C1-PP1α and pFLAG-CMV4-MIIP∆C or pFLAG-CMV4-MIIP∆N; lysis in 30 mM Tris pH 7.5, 150 mM NaCl, 1% Triton X-100; immunoprecipitation with anti-FLAG, 4 °C; immunoblot with anti-PP1α. In general terms: Immunoblotting shows a protein as a band on a membrane.

Assay [4] has as its target T3, MIIP∆N, FLAG-tagged (MIIP C-terminal 220-388 residues) (UniProt Q5JXC2).
T3 sequence: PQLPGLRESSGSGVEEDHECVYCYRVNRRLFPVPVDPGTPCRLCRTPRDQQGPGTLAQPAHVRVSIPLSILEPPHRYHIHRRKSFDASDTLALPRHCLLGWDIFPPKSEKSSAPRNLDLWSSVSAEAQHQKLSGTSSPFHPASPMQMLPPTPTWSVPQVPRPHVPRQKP
The assay is described as above.

“Serine/threonine protein phosphatase 1α (PP1α), mCherry fusion (from UniProt P62136 1-330) (enzyme)”: the binding result is recorded as “binds” in assay [1], “binds” in assay [2], “no binding” in assay [3] and “binds” in assay [4].
